# Measurements from patent US10962528B2, “Blue fluorescent protein monomers and uses thereof” (WISYS TECHNOLOGY FOUNDATION, INC., priority 2015, dated 2021).
# B1: Wild-type SFP: Sandercyanin fluorescent protein from walleye Sander vitreus mucus, biliverdin-binding lipocalin tetramer; SEQ ID NO:1 (recombinant SEQ ID NO:31) (protein, listed as Sander vitreus)
# chain: MNAIQVISLTLLSVLAAKAMFIKPGRCPKPAVQEDFDAARYLGVWYDIQRLPNKFQKGECATATYSLSPGVGFSVFNRERLANGTIKSVIGSAIAEDPCEPAKLQFFHENAAPVPYWVLSTDYDNYALVYSCINLGASHAAYASIVSRQPTLPEETIKKLQGTMSSFGVGVDTLLTTNQDAAYCSAMAQ
# modifications: biliverdin chromophore
# Test: Size-exclusion chromatography, oligomerization state
# Type: physicochemical
molecule,measurement,setting,value
B1,oligomeric state in solution without biliverdin,"apo form, in solution",monomer
same,oligomeric state in the presence of biliverdin,in the presence of BV,homotetramer
